# PubChem BioAssay AID504793, Drosophila RNAi Screening Center, 2011
# Purpose: 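Genes required for cells to halt at G2/M after double-strand DNA breaks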 (primary screen)
# Cell system: Drosophila S2R+ cells
# Reagents: long dsRNA against Drosophila genes, about 0.25 µg dsRNA per well
# Duration: 4 days of dsRNA, then 4 hours of drug before read-out
# Conditions: doxorubicin 0.5 µM for 4 hours to cause double-strand breaks, in cells also given a low, harmless dose of dsRNA against nbs to sensitise the assay
# Measured: 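Mitotic index as the number of phospho-histone H3-positive cells in each well following doxorubicin, given as raw counts without normalisation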
# Reading the numbers: mitotic cells: higher = more cells in mitosis, weaker G2 arrest
# Rule for the call: 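Genes are called active only when high mitotic counts were reproduced with independent dsRNAs and mitosis was checked for delay without damage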
# Calls: active = confirmed in follow-up tests; inactive = not confirmed
# In all, the deposit lists about 23,000 reagents; shown is an unselected part of those that have a named target and a result. Of all reagents, 62 (0.27%) got an active call. 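Calls come from follow-up tests whose scores are not deposited, so confirmed genes may have low counts here; counts are not normalised per plate.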 The raw values are shown without normalisation. Entries without a mark were called inactive. A plus sign joins genes that one reagent is predicted to hit. Reagent sequences are not shown.
gene,DRSC id,"mitotic cells, replicate 1"
lncRNA:CR33938 (GeneID 3772088),DRSC37840,17
lncRNA:CR33938 (GeneID 3772088),DRSC39117,11
Ntmt (GeneID 36022),DRSC06624,7
Ntmt (GeneID 36022),DRSC28647,3
CG8051 (GeneID 32925),DRSC20077,8
CG8051 (GeneID 32925),DRSC26855,11
CG40006 (GeneID 3355123),DRSC03787,4
CG40006 (GeneID 3355123),DRSC03809,1
CG40006 (GeneID 3355123),DRSC03814,9
CG40006 (GeneID 3355123),DRSC03817,7
CG10086 (GeneID 40920),DRSC14183,3
CG30197 (GeneID 246513),DRSC22394,5
Cad96Ca (GeneID 43026),DRSC14220,5
Cad96Ca (GeneID 43026),DRSC16693,9
CG31659 (GeneID 318875),DRSC00760,2
udt (GeneID 42809),DRSC14214,10
CG11590 (GeneID 32368),DRSC19411,9
CG11590 (GeneID 32368),DRSC28405,7
PPO3 (GeneID 44513),DRSC04325,8
PPO3 (GeneID 44513),DRSC24194,6
Nadk1b (GeneID 36507),DRSC06964,3
Nadk1b (GeneID 36507),DRSC06965,3
Nadk1b (GeneID 36507),DRSC25741,8
CG17198 + CG17197,DRSC15190,11
CG17198 + CG17197,DRSC15191,8
Pal1 (GeneID 36033),DRSC06106,10
Cam (GeneID 36329),DRSC07353,7
Cam (GeneID 36329),DRSC07354,19
Pask (GeneID 37824),DRSC04337,1
Pask (GeneID 37824),DRSC28829,7
Gyc76C + CG42637,DRSC11180,7
CG14835 (GeneID 38832),DRSC10205,8
CG15480 (GeneID 34723),DRSC02490,2
CG15480 (GeneID 34723),DRSC24919,6
CG34446 (GeneID 5740549),DRSC24507,9
Nep3 (GeneID 33005),DRSC20685,9
Nep3 (GeneID 33005),DRSC29285,8
snama (GeneID 37857),DRSC04049,11
snama (GeneID 37857),DRSC28914,8
Rab1 (GeneID 42524),DRSC16808,11
Rab1 (GeneID 42524),DRSC29851,2
Chro (GeneID 40508),DRSC11630,5
Listericin (GeneID 36183),DRSC07334,3
Listericin (GeneID 36183),DRSC24374,4
a5 (GeneID 33317),DRSC00798,6
CG15435 (GeneID 33655),DRSC00450,2
CG15435 (GeneID 33655),DRSC27701,6
Tsp (GeneID 33941),DRSC02144,2
Tsp (GeneID 33941),DRSC02145,4
CG32712 (GeneID 318165),DRSC17820,8
CG11858 (GeneID 43044),DRSC14412,11
CG11858 (GeneID 43044),DRSC29222,5
inv (GeneID 36239),DRSC07633,6
inv (GeneID 36239),DRSC29580,6
Cpr92A (GeneID 42333),DRSC16000,8
Cpr92A (GeneID 42333),DRSC25340,5
sncRNA:430e + His2A:CG33859 + His2A:CG33817 + 42 more,DRSC25850,1
CG10909 (GeneID 41581),DRSC14282,5
CG5961 (GeneID 41541),DRSC15927,8
CG5961 (GeneID 41541),DRSC27152,7
Cpr67Fa2 (GeneID 39224),DRSC10315,9
CG31606 (GeneID 318842),DRSC01012,10
RtcB (GeneID 35220),DRSC03280,3
CG30050 (GeneID 246417),DRSC05342,8
oaf (GeneID 33435),DRSC00831,2
CG1428 (GeneID 35433),DRSC03708,3
Ice1 (GeneID 37701),DRSC04191,8
Ice1 (GeneID 37701),DRSC23585,10
Arp5 (GeneID 42173),DRSC16350,6
Arp5 (GeneID 42173),DRSC28688,9
CG10081 (GeneID 37226),DRSC05962,2
CG10081 (GeneID 37226),DRSC24787,8
PNKP (GeneID 40994),DRSC16512,7
Targ1 (GeneID 40340),DRSC11616,1
Hr96 (GeneID 42993),DRSC16707,7

Laid out differently: 6 of the entries above.
gene | DRSC id | mitotic cells, replicate 1
lncRNA:CR33938 (GeneID 3772088) | DRSC37840 | 17
lncRNA:CR33938 (GeneID 3772088) | DRSC39117 | 11
Ntmt (GeneID 36022) | DRSC06624 | 7
Ntmt (GeneID 36022) | DRSC28647 | 3
CG8051 (GeneID 32925) | DRSC20077 | 8
CG8051 (GeneID 32925) | DRSC26855 | 11
